Measured values taken from US9949992B2, “Bisphosphonate compositions and methods for treating and\or reducing cardiac dysfunction” (DUKE UNIVERSITY, priority 2011, dated 2018).

Assay: Hydroxyapatite (HAP) affinity by chromatographic profiling on HAP column
Format: binding
Protocol: Mineral affinity for hydroxyapatite was evaluated by chromatographic profiling of different bisphosphonate compounds. Hydroxyapatite (HAP) ceramic spheres (20 mm diameter, BioRad) were packed in a 0.66×6.5 cm glass column (Omnifit®). The HAP columns were attached to a Waters 650E Advanced Protein Purification System (FPLC) (Millipore) in a running buffer of 1 mM KPO3 at pH 6.8. Each compound was prepared in 1 mM KPO3 buffer at pH6.8 and 400 μmoles were injected into the FPLC system. The bisphosphonate compounds were eluted in a gradient of phosphate buffer, concentration increasing from 1 mM up to 1000 mM and detected by a Waters 484 UV absorbance detector (Millipore) at their optimum wavelength. The results set forth in Table 1 show the HAP retention profiles of each compound and that some compounds have longer retention times.

HAP mineral binding (retention time in mins) (HAP column, phosphate gradient 1 mM to 1000 mM, pH 6.8): 17.5 min
Compound: NCCCC(O)(P(=O)(O)O)P(=O)(O)O [Alendronate]
HAP retention time / affinity for hydroxyapatite (in words) (comparison among tested bisphosphonates): longest retention time
